Source: patent US7723371B2, “Microbiocides” (Syngenta Crop Protection, Inc., priority 2005, dated 2010)
Some of these results come from one statement about several compounds together.

Tests used:
Format in all cases: in vivo
Alternaria solani = assay: Action against Alternaria solani/tomato (early blight on tomatoes); details: 0.02% active ingredient, spray; tomato cv. Roter Gnom; inoculated two days after application; assessed after 3 days incubation
Botrytis cinerea [1] = assay: Action against Botrytis cinerea/tomato (Botrytis on tomatoes); details: 0.02% active ingredient, spray; tomato cv. Roter Gnom; inoculated two days after application; assessed after 4 days incubation
Podosphaera leucotricha = assay: Action against Podosphaera leucotricha/apple (powdery mildew on apple); details: 0.02% active ingredient, spray; apple seedlings cv. McIntosh; inoculated one day after application; assessed after 12 days incubation
Puccinia recondita [2] = assay: Action against Puccinia recondita/wheat (brownrust on wheat) (pouch test); details: 0.002% active ingredient applied into pouch; wheat cv. Arina; inoculated one week after sowing; assessed 10 days after inoculation; indicator for systemic activity
Septoria tritici = assay: Action against Septoria tritici/wheat (Septoria leaf spot on wheat); details: 0.02% active ingredient, spray; wheat cv. Riband; inoculated one day after application; assessed 18 days after inoculation
Botrytis cinerea [3] = assay: Action against Botrytis cinerea/grape (Botrytis on grapes); details: 0.02% active ingredient, spray; grape seedlings cv. Gutedel; inoculated two days after application; assessed after 4 days incubation
Helminthosporium teres = assay: Action against Helminthosporium teres/barley (net blotch on barley); details: 0.02% active ingredient, spray; barley cv. Regina; inoculated two days after application; assessed after 4 days incubation
Uncinula necator = assay: Action against Uncinula necator/grape (powdery mildew on grapes); details: 0.02% active ingredient, spray; grape seedlings cv. Gutedel; inoculated one day after application; assessed after 7 days incubation
Puccinia recondita [4] = assay: Action against Puccinia recondita/wheat (brownrust on wheat); details: 0.02% active ingredient, spray; wheat cv. Arina; inoculated one day after application; assessed 10 days after inoculation
Venturia inaequalis = assay: Action against Venturia inaequalis/apple (scab on apple); details: 0.02% active ingredient, spray; apple seedlings cv. McIntosh; inoculated one day after application; assessed after 4+4+4 days incubation
Erysiphe graminis = assay: Action against Erysiphe graminis/barley (powdery mildew on barley); details: 0.02% active ingredient, spray; barley cv. Regina; inoculated one day after application; assessed after 6 days incubation

SMILES | disease incidence (Alternaria solani) | disease incidence (Botrytis cinerea [1]) | infestation (Podosphaera leucotricha) | disease incidence (Puccinia recondita [2]) | disease incidence (Septoria tritici) | disease incidence (Botrytis cinerea [3]) | disease incidence (Helminthosporium teres) | disease incidence (Uncinula necator) | infestation (Puccinia recondita [4]) | infestation (Venturia inaequalis) | infestation (Erysiphe graminis)
Cn1cc(C(=O)Nc2ccccc2C2CC(C3CC3)C2)c(C(F)(F)F)n1 (mixture of isomers) [Compound 1.1] | < 20% | < 50% | < 20% | < 50% | < 20% | < 50% | < 20% | < 20% | < 20% | < 20% | < 20%
Cn1cc(C(=O)Nc2ccccc2C2CCC2C2CC2)c(C(F)(F)F)c1 (stereo not drawn) [Compound 8.1] | < 20% | < 50% | < 20% | < 50% | < 20% |  | < 20% | < 20% | < 20% | < 20% | < 20%
